Measured values as given in patent US20080003199A1.
These are yes or no findings as the source states them, for the method shown. Binding seen in cells or lysates may run through a third protein. Some entries that bind do so weakly or less than the wild type. Sequences can lack the tags named with a protein.

Experiments:
[1] = target: T1, mouse ST2-Fc (R&D) (mouse) (UniProt P14719); experiment: pull-down of recombinant IL-33 with mouse ST2-Fc protein (FIG. 11D)
T1 sequence (looked up): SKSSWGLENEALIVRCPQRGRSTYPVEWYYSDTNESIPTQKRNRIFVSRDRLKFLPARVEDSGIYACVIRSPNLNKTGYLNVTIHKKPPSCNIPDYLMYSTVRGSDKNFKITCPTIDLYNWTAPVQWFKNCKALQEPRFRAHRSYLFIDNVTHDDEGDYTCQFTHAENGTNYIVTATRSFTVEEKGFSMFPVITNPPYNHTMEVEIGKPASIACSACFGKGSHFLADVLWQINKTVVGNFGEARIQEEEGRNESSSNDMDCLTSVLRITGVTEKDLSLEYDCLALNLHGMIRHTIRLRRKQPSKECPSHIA

[2] = target: T1, mouse ST2-Fc (R&D) (mouse); experiment: pull-down of His-tagged IL-33 with mouse ST2-Fc, Ni-NTA beads, anti-HisG Western

B1: recombinant mature rat IL-33 with N-terminal His-tag (ligand, UniProt Q66H70 109-264, looked up, not shown: small tags and cut ends)
chain: SIQGTSLLTESCALSTYNDQSVSFVLENGCYVINVEDCGKNQEKDKVLLRYYESSFPAQSGDGVDGKKLMVNMSPIKDTDIWLNANDKDYSVELQKGDVSPPDQAFFVLHKKSSDFVSFECKNLPGTYIGVKDNQLALVEENDESCNNIMFKLSKM
[1]
  binding: binds
[2]
  binding: binds
